Laboratory results reported in the supplement of paper PMC10849652.
The list shows a part of the results.

Chains of the proteins cited; added tags and fusions are not shown. Lines headed by an entry give the natural chain unless they say otherwise; changes in a name come on top.
UniProt Q6GQQ9: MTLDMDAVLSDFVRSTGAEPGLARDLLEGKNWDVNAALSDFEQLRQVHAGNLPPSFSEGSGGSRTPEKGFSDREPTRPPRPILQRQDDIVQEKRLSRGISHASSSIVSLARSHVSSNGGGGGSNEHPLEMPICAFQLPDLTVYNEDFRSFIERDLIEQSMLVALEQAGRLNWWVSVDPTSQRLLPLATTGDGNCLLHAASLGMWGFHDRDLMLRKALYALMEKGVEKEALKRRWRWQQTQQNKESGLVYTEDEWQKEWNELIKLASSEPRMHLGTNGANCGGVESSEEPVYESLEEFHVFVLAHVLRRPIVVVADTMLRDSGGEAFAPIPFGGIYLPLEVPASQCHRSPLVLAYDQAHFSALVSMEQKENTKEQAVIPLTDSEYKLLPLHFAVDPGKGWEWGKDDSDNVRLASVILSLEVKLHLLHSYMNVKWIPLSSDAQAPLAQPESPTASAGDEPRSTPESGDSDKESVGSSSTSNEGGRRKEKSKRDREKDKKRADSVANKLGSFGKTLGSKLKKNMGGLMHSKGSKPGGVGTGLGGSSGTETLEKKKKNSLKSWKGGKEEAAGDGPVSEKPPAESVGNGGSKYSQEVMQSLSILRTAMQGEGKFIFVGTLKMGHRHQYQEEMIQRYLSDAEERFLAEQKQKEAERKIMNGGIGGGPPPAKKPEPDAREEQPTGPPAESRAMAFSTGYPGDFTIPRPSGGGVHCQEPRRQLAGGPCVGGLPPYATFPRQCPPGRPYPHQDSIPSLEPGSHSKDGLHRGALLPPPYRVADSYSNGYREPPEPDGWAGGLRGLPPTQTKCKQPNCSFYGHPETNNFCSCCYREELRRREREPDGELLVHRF
UniProt Q86UY8: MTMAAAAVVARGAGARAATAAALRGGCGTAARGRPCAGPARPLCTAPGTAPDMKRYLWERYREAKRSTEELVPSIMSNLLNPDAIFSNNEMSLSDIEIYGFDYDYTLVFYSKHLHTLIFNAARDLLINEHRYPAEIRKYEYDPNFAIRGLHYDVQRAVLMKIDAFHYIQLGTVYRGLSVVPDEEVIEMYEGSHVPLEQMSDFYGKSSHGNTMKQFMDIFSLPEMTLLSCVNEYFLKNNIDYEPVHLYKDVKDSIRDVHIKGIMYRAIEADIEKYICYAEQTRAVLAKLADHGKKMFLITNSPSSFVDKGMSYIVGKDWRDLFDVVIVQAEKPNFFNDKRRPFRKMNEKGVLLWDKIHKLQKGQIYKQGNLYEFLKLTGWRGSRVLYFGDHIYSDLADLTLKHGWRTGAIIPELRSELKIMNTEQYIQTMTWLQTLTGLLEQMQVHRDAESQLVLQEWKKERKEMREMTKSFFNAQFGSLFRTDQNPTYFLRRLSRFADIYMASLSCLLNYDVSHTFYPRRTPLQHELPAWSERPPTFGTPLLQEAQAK
UniProt Q9Y266: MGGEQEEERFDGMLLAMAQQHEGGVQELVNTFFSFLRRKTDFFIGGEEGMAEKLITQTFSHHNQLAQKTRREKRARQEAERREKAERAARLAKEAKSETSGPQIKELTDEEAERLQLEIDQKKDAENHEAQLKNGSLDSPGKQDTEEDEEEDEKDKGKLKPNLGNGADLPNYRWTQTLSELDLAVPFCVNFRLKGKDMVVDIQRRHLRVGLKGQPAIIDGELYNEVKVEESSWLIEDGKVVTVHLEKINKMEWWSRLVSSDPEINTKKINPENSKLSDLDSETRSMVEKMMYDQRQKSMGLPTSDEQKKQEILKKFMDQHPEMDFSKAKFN
UniProt Q96CB9: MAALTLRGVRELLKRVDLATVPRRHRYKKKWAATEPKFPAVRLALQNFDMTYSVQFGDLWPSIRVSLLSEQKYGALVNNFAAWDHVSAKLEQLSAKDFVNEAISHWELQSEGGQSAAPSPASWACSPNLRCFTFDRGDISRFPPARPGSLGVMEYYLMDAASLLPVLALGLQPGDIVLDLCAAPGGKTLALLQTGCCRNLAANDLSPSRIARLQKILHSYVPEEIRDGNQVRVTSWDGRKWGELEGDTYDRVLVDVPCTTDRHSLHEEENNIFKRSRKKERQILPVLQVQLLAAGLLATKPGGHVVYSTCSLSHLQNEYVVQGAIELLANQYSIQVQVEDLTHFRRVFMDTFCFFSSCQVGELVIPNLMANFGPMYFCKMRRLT
UniProt Q96P11: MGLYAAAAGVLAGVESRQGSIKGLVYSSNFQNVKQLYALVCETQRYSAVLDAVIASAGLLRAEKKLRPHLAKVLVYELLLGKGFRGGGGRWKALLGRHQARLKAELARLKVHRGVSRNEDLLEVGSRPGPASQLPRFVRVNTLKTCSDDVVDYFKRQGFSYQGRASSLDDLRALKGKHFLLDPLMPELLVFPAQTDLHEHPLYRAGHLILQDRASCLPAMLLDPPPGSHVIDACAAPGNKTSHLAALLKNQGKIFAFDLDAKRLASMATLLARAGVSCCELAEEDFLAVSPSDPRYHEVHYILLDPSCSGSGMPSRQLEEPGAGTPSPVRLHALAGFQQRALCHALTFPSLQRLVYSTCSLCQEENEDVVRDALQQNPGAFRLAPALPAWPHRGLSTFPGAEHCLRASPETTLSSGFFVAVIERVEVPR
UniProt P35658: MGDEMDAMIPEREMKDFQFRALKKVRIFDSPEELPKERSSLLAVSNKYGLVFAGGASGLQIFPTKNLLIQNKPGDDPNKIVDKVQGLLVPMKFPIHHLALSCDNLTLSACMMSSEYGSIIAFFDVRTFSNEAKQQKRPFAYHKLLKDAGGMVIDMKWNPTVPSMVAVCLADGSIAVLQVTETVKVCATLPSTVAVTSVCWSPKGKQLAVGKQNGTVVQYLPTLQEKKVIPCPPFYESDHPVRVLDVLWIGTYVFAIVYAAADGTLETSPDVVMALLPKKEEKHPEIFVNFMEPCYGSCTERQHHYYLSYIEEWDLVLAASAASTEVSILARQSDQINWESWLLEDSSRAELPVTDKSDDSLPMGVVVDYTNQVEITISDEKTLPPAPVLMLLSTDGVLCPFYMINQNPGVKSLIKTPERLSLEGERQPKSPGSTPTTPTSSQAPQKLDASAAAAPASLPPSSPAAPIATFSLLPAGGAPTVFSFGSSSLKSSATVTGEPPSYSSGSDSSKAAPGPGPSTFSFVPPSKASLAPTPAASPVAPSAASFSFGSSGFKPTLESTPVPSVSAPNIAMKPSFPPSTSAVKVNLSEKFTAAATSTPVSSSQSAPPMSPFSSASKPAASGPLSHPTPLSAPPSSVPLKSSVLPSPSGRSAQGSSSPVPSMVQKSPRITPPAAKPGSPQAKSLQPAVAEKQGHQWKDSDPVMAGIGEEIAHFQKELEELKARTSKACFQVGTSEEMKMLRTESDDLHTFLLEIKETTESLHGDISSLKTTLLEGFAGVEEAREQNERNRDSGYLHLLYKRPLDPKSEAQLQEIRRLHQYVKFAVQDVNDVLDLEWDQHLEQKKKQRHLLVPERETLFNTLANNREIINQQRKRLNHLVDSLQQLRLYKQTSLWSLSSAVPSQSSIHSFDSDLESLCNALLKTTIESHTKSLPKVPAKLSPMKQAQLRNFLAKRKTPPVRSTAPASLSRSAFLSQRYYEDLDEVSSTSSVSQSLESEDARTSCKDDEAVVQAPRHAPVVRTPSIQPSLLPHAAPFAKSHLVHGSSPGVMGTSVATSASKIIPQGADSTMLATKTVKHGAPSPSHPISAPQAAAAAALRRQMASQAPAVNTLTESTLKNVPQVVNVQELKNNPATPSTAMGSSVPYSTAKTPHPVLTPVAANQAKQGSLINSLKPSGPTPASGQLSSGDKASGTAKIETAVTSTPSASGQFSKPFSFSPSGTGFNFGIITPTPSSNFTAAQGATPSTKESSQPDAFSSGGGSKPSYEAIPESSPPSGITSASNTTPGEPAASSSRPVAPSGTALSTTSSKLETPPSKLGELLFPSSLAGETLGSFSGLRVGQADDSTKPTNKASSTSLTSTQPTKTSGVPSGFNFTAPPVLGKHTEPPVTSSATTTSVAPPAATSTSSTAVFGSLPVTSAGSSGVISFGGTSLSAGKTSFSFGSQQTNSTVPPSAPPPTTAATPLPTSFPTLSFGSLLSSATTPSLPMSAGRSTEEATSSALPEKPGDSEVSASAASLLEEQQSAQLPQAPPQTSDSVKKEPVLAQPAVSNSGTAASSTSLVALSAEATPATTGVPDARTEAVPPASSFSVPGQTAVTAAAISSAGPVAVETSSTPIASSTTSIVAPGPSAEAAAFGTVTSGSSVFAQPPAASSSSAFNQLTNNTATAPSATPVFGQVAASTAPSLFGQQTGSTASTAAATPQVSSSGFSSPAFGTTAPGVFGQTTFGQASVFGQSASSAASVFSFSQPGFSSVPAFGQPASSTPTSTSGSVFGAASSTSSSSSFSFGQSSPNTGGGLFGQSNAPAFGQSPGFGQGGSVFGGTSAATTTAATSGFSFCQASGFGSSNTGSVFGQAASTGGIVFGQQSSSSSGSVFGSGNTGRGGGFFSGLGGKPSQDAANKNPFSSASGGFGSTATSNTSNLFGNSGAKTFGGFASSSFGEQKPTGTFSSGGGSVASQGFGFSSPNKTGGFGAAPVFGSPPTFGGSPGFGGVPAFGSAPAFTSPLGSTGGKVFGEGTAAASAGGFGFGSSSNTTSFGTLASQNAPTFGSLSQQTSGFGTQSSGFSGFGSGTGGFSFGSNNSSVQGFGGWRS
UniProt O43482, whole entry, looked up: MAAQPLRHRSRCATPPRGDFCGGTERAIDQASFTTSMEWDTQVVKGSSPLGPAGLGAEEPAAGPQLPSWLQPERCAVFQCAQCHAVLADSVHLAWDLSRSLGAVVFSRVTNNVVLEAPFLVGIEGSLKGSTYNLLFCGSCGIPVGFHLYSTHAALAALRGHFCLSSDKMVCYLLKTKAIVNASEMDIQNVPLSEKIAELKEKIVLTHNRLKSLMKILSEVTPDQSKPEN
UniProt Q9Y5A7: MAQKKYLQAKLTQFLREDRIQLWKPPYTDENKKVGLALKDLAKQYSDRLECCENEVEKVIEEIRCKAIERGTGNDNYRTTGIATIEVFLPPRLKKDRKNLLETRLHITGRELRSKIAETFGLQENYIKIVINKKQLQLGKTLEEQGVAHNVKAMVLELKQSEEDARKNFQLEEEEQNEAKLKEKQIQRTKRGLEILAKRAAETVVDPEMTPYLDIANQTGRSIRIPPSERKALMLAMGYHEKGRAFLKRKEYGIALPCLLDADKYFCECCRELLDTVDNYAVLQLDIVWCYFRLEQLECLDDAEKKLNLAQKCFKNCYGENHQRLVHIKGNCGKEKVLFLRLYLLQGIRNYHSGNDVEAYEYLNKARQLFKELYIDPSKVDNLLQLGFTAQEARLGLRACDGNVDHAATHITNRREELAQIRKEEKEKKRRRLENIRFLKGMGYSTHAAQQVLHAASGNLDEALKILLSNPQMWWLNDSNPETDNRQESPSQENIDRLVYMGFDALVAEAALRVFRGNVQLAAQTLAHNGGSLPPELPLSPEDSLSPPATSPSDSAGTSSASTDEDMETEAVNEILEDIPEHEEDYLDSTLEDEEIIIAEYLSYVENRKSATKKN
UniProt Q96HP4: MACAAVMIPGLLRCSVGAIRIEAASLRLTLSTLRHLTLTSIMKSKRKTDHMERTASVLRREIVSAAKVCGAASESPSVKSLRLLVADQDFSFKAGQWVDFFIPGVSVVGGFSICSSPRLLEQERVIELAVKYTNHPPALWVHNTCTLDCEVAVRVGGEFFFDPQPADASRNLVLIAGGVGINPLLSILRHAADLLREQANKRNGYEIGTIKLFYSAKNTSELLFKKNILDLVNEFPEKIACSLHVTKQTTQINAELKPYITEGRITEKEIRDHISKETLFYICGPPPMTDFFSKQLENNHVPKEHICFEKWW
UniProt Q9BXS6: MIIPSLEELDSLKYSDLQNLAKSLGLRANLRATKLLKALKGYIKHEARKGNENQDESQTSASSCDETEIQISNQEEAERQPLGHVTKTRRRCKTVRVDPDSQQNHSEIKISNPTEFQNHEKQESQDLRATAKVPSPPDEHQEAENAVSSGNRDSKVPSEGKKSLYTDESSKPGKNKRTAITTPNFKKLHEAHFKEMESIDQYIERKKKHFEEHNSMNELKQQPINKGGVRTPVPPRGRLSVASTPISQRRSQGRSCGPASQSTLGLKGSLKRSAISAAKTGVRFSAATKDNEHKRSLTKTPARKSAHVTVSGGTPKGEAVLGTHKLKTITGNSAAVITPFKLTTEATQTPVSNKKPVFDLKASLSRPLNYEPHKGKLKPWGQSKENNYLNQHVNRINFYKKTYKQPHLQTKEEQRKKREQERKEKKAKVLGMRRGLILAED

Tests used:
Experiment in all cases: log2 fold change, soluble protein after heating vs DMSO (PISA); higher = thermal stabilisation; K562 cells, 10 uM, 30 min; active = over 0.2 and 3.5 SD of the protein, either way, in both replicates (recomputed)
[1] = compound: COC1=CC=C(C=C1)CN2C=CC3=C2C=C(C=C3)C(=O)NO
How it was run: (§1)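 K562 cells at 2×10^6 cells/mL were treated with 10 μM compound for 30 min. Aliquots were heated for 3 min across 48°C-58°C, pooled, and extracted in PBS with 0.5% NP-40 at 4°C; soluble protein was the supernatant after 21,000xg for 90 min. Soluble protein was quantified by TMTpro 16plex LC-MS/MS with channel sums equalised, and reported as log2 fold change in thermal stability against DMSO controls, with values from duplicates.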

filanesib = compound: CON(C)C(=O)N1N=C(c2cc(F)ccc2F)S[C@@]1(CCCN)c1ccccc1 [filanesib]
How it was run: as §1

zotarolimus = compound: CO[C@H]1C[C@@H]2CC[C@@H](C)[C@@](O)(O2)C(=O)C(=O)N2CCCC[C@H]2C(=O)O[C@H]([C@H](C)C[C@@H]2CC[C@H](n3cnnn3)[C@H](OC)C2)CC(=O)[C@H](C)/C=C(\C)[C@@H](O)[C@@H](OC)C(=O)[C@H](C)C[C@H](C)/C=C/C=C/C=C/1C [zotarolimus]
How it was run: as §1

idasanutlin = compound: COc1cc(C(=O)O)ccc1NC(=O)[C@@H]1N[C@@H](CC(C)(C)C)[C@](C#N)(c2ccc(Cl)cc2F)[C@H]1c1cccc(Cl)c1F [idasanutlin]
How it was run: as §1

alisertib = compound: COc1cc(Nc2ncc3c(n2)-c2ccc(Cl)cc2C(c2c(F)cccc2OC)=NC3)ccc1C(=O)O [alisertib]
How it was run: as §1

[2] = compound: COc1cc2nc(-c3cc(F)ccc3O)nc(N[C@@H]3CNC[C@H]3C(C)(C)O)c2cc1OC
How it was run: as §1

gefitinib = compound: COc1cc2ncnc(Nc3ccc(F)c(Cl)c3)c2cc1OCCCN1CCOCC1 [gefitinib]
How it was run: as §1

[3] = compound: COc1cccc2cc(-c3nc([C@H]4CC[C@H](C(=O)O)CC4)n4ncnc(N)c34)[nH]c12
How it was run: as §1

lapatinib = compound: CS(=O)(=O)CCNCc1ccc(-c2ccc3ncnc(Nc4ccc(OCc5cccc(F)c5)c(Cl)c4)c3c2)o1 [lapatinib]
How it was run: as §1

pictilisib = compound: CS(=O)(=O)N1CCN(Cc2cc3nc(-c4cccc5[nH]ncc45)nc(N4CCOCC4)c3s2)CC1 [pictilisib]
How it was run: as §1

[4] = compound: CS(=O)(=O)c1ccc(-c2cnc(N)c(C(=O)Nc3ccccc3)n2)cc1
How it was run: as §1

crizotinib = compound: C[C@@H](Oc1cc(-c2cnn(C3CCNCC3)c2)cnc1N)c1c(Cl)ccc(F)c1Cl [crizotinib]
How it was run: as §1

[5] = compound: C[C@@H]1COCCN1C2=NC(=NC(=C2)C3(CC3)S(=O)(=O)C)C4=C5C=CNC5=CC=C4
How it was run: as §1

[6] = compound: C[C@H](C1=CC=C(C=C1)C(=O)NC2=C3C=CNC3=NC=C2)N
How it was run: as §1

duvelisib = compound: C[C@H](Nc1ncnc2nc[nH]c12)c1cc2cccc(Cl)c2c(=O)n1-c1ccccc1 [duvelisib]
How it was run: as §1

gandotinib = compound: Cc1cc(Nc2cc(CN3CCOCC3)c3nc(C)c(Cc4ccc(Cl)cc4F)n3n2)n[nH]1 [gandotinib]
How it was run: as §1

tozasertib = compound: Cc1cc(Nc2cc(N3CCN(C)CC3)nc(Sc3ccc(NC(=O)C4CC4)cc3)n2)n[nH]1 [tozasertib]
How it was run: as §1

[7] = compound: Cc1cc(SCc2sc(-c3ccc(C(F)(F)F)cc3)nc2C)ccc1OCC(=O)O
How it was run: as §1

doramapimod = compound: Cc1ccc(-n2nc(C(C)(C)C)cc2NC(=O)Nc2ccc(OCCN3CCOCC3)c3ccccc23)cc1 [doramapimod]
How it was run: as §1

ispinesib = compound: Cc1ccc(C(=O)N(CCCN)[C@@H](c2nc3cc(Cl)ccc3c(=O)n2Cc2ccccc2)C(C)C)cc1 [ispinesib]
How it was run: as §1

Measured: log2 fold change

NUP155 (UniProt O75694)
inactive: [1] 0.179 | filanesib -0.122 | zotarolimus 0.02 | idasanutlin -0.085 | alisertib -0.018 | [2] -0.049 | gefitinib 0.013 | [3] 0 | lapatinib 0.007 | pictilisib -0.059 | [4] -0.01 | crizotinib -0.137 | [5] 0.073 | [6] -0.046 | duvelisib 0.02 | gandotinib -0.132 | tozasertib -0.046 | [7] 0.053 | doramapimod 0.048 | ispinesib -0.055

OTUD7B (UniProt Q6GQQ9)
inactive: [1] 0.169 | filanesib 0.024 | zotarolimus 0.037 | idasanutlin 0.001 | alisertib 0.097 | [2] 0.194 | gefitinib 0.331 | [3] 0.024 | lapatinib 0.088 | pictilisib -0.191 | [4] 0.039 | crizotinib -0.031 | [5] 0.123 | [6] 0 | duvelisib 0.147 | gandotinib 0.062 | tozasertib 0.036 | [7] -0.225 | doramapimod -0.052 | ispinesib 0.156

NT5DC3 (UniProt Q86UY8)
inactive: [1] 0.01 | filanesib -0.018 | zotarolimus -0.021 | idasanutlin 0.019 | alisertib -0.109 | [2] 0.045 | gefitinib -0.005 | [3] 0.047 | lapatinib 0.029 | pictilisib -0.047 | [4] 0.027 | crizotinib 0.087 | [5] 0.032 | [6] -0.038 | duvelisib 0.095 | gandotinib 0.02 | tozasertib -0.017 | [7] 0.038 | doramapimod -0.009 | ispinesib 0.096

PA2G4 (UniProt Q9UQ80)
inactive: [1] 0.066 | filanesib -0.059 | zotarolimus 0.042 | idasanutlin -0.014 | alisertib -0.053 | [2] 0.007 | gefitinib -0.001 | [3] 0.011 | lapatinib 0.016 | pictilisib 0.013 | [4] 0.039 | crizotinib -0.081 | [5] 0.114 | [6] -0.023 | duvelisib -0.003 | gandotinib 0.016 | tozasertib -0.023 | [7] 0.054 | doramapimod 0.044 | ispinesib -0.005

NUDC (UniProt Q9Y266)
inactive: [1] -0.013 | filanesib -0.041 | zotarolimus 0.04 | idasanutlin -0.025 | alisertib -0.028 | [2] 0.016 | gefitinib 0.012 | [3] 0.026 | lapatinib -0.013 | pictilisib 0.004 | [4] 0.048 | crizotinib -0.034 | [5] 0.085 | [6] -0.037 | duvelisib 0.004 | gandotinib -0.074 | tozasertib -0.012 | [7] 0.011 | doramapimod 0.007 | ispinesib -0.006

NSUN4 (UniProt Q96CB9)
inactive: [1] -0.212 | filanesib 0.109 | zotarolimus -0.033 | idasanutlin -0.026 | alisertib -0.125 | [2] 0.08 | gefitinib -0.065 | [3] 0.267 | lapatinib -0.036 | pictilisib 0.009 | [4] -0.04 | crizotinib -0.1 | [5] -0.039 | [6] 0.123 | duvelisib -0.046 | gandotinib -0.017 | tozasertib 0.008 | [7] 0.046 | doramapimod 0.048 | ispinesib -0.105

NSUN5 isoform 2 (UniProt Q96P11)
inactive: [1] -0.013 | filanesib 0.093 | zotarolimus 0.007 | idasanutlin -0.024 | alisertib -0.133 | [2] 0.01 | gefitinib -0.027 | [3] 0.027 | lapatinib 0.064 | pictilisib -0.113 | [4] -0.085 | crizotinib -0.001 | [5] -0.007 | [6] 0.183 | duvelisib -0.005 | gandotinib 0.037 | tozasertib -0.015 | [7] -0.141 | doramapimod 0.006 | ispinesib -0.025

NT5C3A (UniProt Q9H0P0)
inactive: [1] -0.002 | filanesib 0.109 | zotarolimus 0.044 | idasanutlin 0.077 | alisertib -0.085 | [2] -0.053 | gefitinib 0.099 | [3] -0.22 | lapatinib 0.1 | pictilisib 0.003 | [4] 0.093 | crizotinib -0.104 | [5] -0.102 | [6] 0.187 | duvelisib -0.024 | gandotinib 0.034 | tozasertib 0.015 | [7] 0.122 | doramapimod 0.11 | ispinesib -0.206

NUP214 isoform 5 (UniProt P35658)
inactive: [1] 0.002 | filanesib 0.181 | zotarolimus 0.084 | idasanutlin 0.082 | alisertib -0.037 | [2] 0.076 | gefitinib -0.009 | [3] -0.07 | lapatinib 0.043 | pictilisib -0.033 | [4] 0.001 | crizotinib -0.141 | [5] -0.159 | [6] 0.232 | duvelisib -0.066 | gandotinib -0.069 | tozasertib 0.044 | [7] 0.135 | doramapimod 0.151 | ispinesib -0.105

Taken from above (two entries):
PA2G4 (UniProt Q9UQ80)
inactive: [1] 0.066 | filanesib -0.059 | zotarolimus 0.042 | idasanutlin -0.014 | alisertib -0.053 | [2] 0.007 | gefitinib -0.001 | [3] 0.011 | lapatinib 0.016 | pictilisib 0.013 | [4] 0.039 | crizotinib -0.081 | [5] 0.114 | [6] -0.023 | duvelisib -0.003 | gandotinib 0.016 | tozasertib -0.023 | [7] 0.054 | doramapimod 0.044 | ispinesib -0.005

NUDC (UniProt Q9Y266)
inactive: [1] -0.013 | filanesib -0.041 | zotarolimus 0.04 | idasanutlin -0.025 | alisertib -0.028 | [2] 0.016 | gefitinib 0.012 | [3] 0.026 | lapatinib -0.013 | pictilisib 0.004 | [4] 0.048 | crizotinib -0.034 | [5] 0.085 | [6] -0.037 | duvelisib 0.004 | gandotinib -0.074 | tozasertib -0.012 | [7] 0.011 | doramapimod 0.007 | ispinesib -0.006

Following part

OIP5 (UniProt O43482)
inactive: [1] 0.109 | filanesib 0.018 | zotarolimus 0.058 | idasanutlin -0.069 | alisertib 0.022 | [2] -0.029 | gefitinib -0.051 | [3] -0.005 | lapatinib 0.002 | pictilisib 0.116 | [4] 0.116 | crizotinib 0.026 | [5] 0.042 | [6] -0.109 | duvelisib 0.027 | gandotinib 0.04 | tozasertib 0.047 | [7] -0.07 | doramapimod -0.007 | ispinesib -0.007

NUB1 (UniProt Q9Y5A7)
inactive: [1] -0.042 | filanesib 0.147 | zotarolimus 0.039 | idasanutlin 0.111 | alisertib -0.088 | [2] -0.12 | gefitinib 0.068 | [3] -0.005 | lapatinib 0.002 | pictilisib 0.143 | [4] -0.01 | crizotinib -0.085 | [5] -0.077 | [6] 0.225 | duvelisib -0.015 | gandotinib -0.072 | tozasertib 0.073 | [7] 0.197 | doramapimod 0.072 | ispinesib -0.098

OGDH (UniProt Q02218)
inactive: [1] 0.101 | filanesib 0.017 | zotarolimus 0.058 | idasanutlin -0.185 | alisertib -0.071 | [2] -0.027 | gefitinib -0.033 | [3] -0.089 | lapatinib 0.132 | pictilisib -0.016 | [4] 0.036 | crizotinib 0.034 | [5] 0.013 | [6] 0.126 | duvelisib -0.035 | gandotinib 0.008 | tozasertib 0 | [7] 0.151 | doramapimod 0.025 | ispinesib -0.137

OXNAD1 (UniProt Q96HP4)
inactive: [1] -0.001 | filanesib 0.019 | zotarolimus 0.05 | idasanutlin -0.04 | alisertib -0.016 | [2] 0.109 | gefitinib 0.051 | [3] 0.026 | lapatinib 0.007 | pictilisib 0.065 | [4] -0.002 | crizotinib 0.138 | [5] -0.016 | [6] 0.042 | duvelisib 0.045 | gandotinib -0.012 | tozasertib -0.013 | [7] -0.001 | doramapimod 0.019 | ispinesib 0.098

P4HB (UniProt P07237)
inactive: [1] -0.027 | filanesib -0.007 | zotarolimus -0.017 | idasanutlin 0.007 | alisertib -0.068 | [2] 0.012 | gefitinib 0.026 | [3] 0.022 | lapatinib -0.026 | pictilisib -0.015 | [4] 0.011 | crizotinib 0.072 | [5] 0.004 | [6] -0.039 | duvelisib -0.002 | gandotinib 0.001 | tozasertib -0.006 | [7] -0.031 | doramapimod 0.019 | ispinesib 0.037

NUSAP1 (UniProt Q9BXS6)
inactive: [1] -0.2 | filanesib 0.308 | zotarolimus 0.011 | idasanutlin 0.032 | alisertib 0.057 | [2] -0.03 | gefitinib -0.006 | [3] 0.121 | lapatinib 0.159 | pictilisib -0.117 | [4] -0.003 | crizotinib 0.041 | [5] -0.045 | [6] 0.271 | duvelisib -0.047 | gandotinib 0.071 | tozasertib -0.041 | [7] -0.005 | doramapimod 0.201 | ispinesib -0.063

NT5C2 (UniProt P49902)
inactive: [1] 0.059 | filanesib -0.018 | zotarolimus 0.011 | idasanutlin -0.025 | alisertib -0.115 | [2] 0.023 | gefitinib -0.001 | [3] 0.039 | lapatinib -0.055 | pictilisib 0.043 | [4] 0.034 | crizotinib 0.029 | [5] 0.065 | [6] -0.031 | duvelisib 0.027 | gandotinib 0.078 | tozasertib -0.063 | [7] -0.002 | doramapimod -0.015 | ispinesib 0.02
